Measurements as given in paper PMC5006980.
Numbering of substitutions follows the chain as printed. Names and notes keep the numbering of the source. No constants are given. Whether binding was seen depends on the method and setting. For part of these data: Binding can be weak; no strength is given. Tags and fused reporters may be left off the sequences shown.

B1: full-length rat PLK2 T236E (constitutively active kinase domain) fused to the GAL4 activation domain (enzyme, UniProt Q9R012 1-682)
chain: MELLRTITYQPAAGTKMCEQALGKACGGDSKKKRPQQPSEDGQSQAQVTPAAPHHHHHHSHSGPEISRIIVDPTTGKRYCRGKVLGKGGFAKCYEMTDLTNNKVYAAKIIPHSRVAKPHQREKIDKEIELHRILHHKHVVQFYHYFEDKENIYILLEYCSRRSMAHILKARKVLTEPEVRYYLRQIVSGLKYLHEQEILHRDLKLGNFFINEAMELKVGDFGLAARLEPLEHRRREICGTPNYLSPEVLNKQGHGCESDIWALGCVMYTMLLGRPPFETTNLKETYRCIREARYTMPSSLLAPAKHLIASMLSKNPEDRPSLDDIIRHDFFLQGFTPDRLSSSCCHTVPDFHLSSPAKNFFKKAAAALFGGKKDKARYNDTHNKVSKEDEDIYKLRHDLKKTSITQQPSKHRTDEELQPPPTTFAKSGTSAVENKQQIGDAIRMIVRGTLGSCSSSSECLEDSTMGSVADTVARVLRGCLENMPEADCIPKEQLSTSFQWVTKWVDYSNKYGFGYQLSDHTVGVLFNNGAHMSLLPDKKTVHYYAELGQCSVFPATDAPEQFISQVTVLKYFSHYMEENLMDGGDLPSVTDIRRPRLYLLQWLKSDKALMMLFNDGTFQVNFYHDHTKIIICNQNEEYLLTYINEDRISTTFRLTTLLMSGCSLELKHRMEYALNMLLQRCN
B2: full-length rat PLK2 K108M (inactive kinase domain) fused to the GAL4 activation domain (enzyme, UniProt Q9R012 1-682)
chain: B1 chain with K108M, E236T
B3: full-length rat PLK2 W504F (inactive polo-box domain) fused to the GAL4 activation domain (enzyme, UniProt Q9R012 1-682)
chain: B1 chain with E236T, W504F

The binders below were run against full-length PFV Gag S224A fused to the GAL4 DNA binding domain (prototype foamy virus (PFV)) (assay: two-hybrid; directed Y2H, Matchmaker System, S. cerevisiae AH109; baits fused to GAL4 DB, preys fused to GAL4 AD; growth on quadruple-dropout (-Leu/-Trp/-Ade/-His) agar after two to four days at 30°C).
For B1, the binding was “no binding”.
For B2, the binding was “no binding”.
With B3 the binding was “no binding”.

The binders below were run against full-length PFV Gag T225E fused to the GAL4 DNA binding domain (prototype foamy virus (PFV)) in the same assay as above.
In the case of B1, the binding is reported as “no binding”.
B2 was tested, and the binding was “no binding”.
With B3 the binding was “no binding”.

The binders below were run against full-length PFV Gag P226A fused to the GAL4 DNA binding domain (prototype foamy virus (PFV)) in the same assay as above.
B1 was tested, and the binding was “no binding”.
For B2, the binding was “no binding”.
In the case of B3, the binding is reported as “no binding”.

What follows are binders tested against full-length PFV Gag T225D fused to the GAL4 DNA binding domain (prototype foamy virus (PFV)) in the same assay as above.
In the case of B1, the binding is reported as “no binding”.
For B2, the binding was “no binding”.
B3 was tested, and the binding was “no binding”.

These binders were tested against full-length PFV Gag fused to the N-terminus of the GAL4 DNA binding domain (Gag-DB) (prototype foamy virus (PFV)) in the same assay as above.
B1 was tested, and the binding was “binds”.
B2 was tested, and the binding was “no binding”.
B3 was tested, and the binding was “no binding”.

Each binder was assayed against full-length PFV Gag T225A fused to the GAL4 DNA binding domain (prototype foamy virus (PFV)) in the same assay as above.
For B1, the binding was “no binding”.
For B2, the binding was “no binding”.
For B3, the binding was “no binding”.
